According to PMC4814116, “Design of Novel Relaxase Substrates Based on Rolling Circle Replicases for Bioconjugation to DNA Nanostructures”:
These are yes or no findings as the source states them, for the method shown.

What was measured:
Test in all cases: SEC; Superdex75 10/300 GL; 100 mM Tris-HCl pH 7.6, 500 mM NaCl, 0.1 mM EDTA; each relaxase alone; both purified
[1] = biological target: N-terminal relaxase domain of TrwC (residues 1 to 293) of plasmid R388 (plasmid R388) (UniProt Q47673)
[2] = biological target: N-terminal fragment of RSF1010 MobA (first 186 residues) (plasmid RSF1010) (UniProt P07112)
[3] = biological target: N-terminal domain (270 residues) of RP4 TraI (plasmid RP4) (UniProt Q00191)

B1: N-terminal relaxase domain of TrwC (residues 1 to 293) of plasmid R388 (domain or fragment, UniProt Q47673 1-293)
chain: MLSHMVLTRQDIGRAASYYEDGADDYYAKDGDASEWQGKGAEELGLSGEVDSKRFRELLAGNIGEGHRIMRSATRQDSKERIGLDLTFSAPKSVSLQALVAGDAEIIKAHDRAVARTLEQAEARAQARQKIQGKTRIETTGNLVIGKFRHETSRERDPQLHTHAVILNMTKRSDGQWRALKNDEIVKATRYLGAVYNAELAHELQKLGYQLRYGKDGNFDLAHIDRQQIEGFSKRTEQIAEWYAARGLDPNSVSLEQKQAAKVLSRAKKTSVDREALRAEWQATAKELGIDFS
binding [1]: no binding

B2: N-terminal fragment of RSF1010 MobA (first 186 residues) (domain or fragment, UniProt P07112 1-186)
chain: MAIYHLTAKTGSRSGGQSARAKADYIQREGKYARDMDEVLHAESGHMPEFVERPADYWDAADLYERANGRLFKEVEFALPVELTLDQQKALASEFAQHLTGAERLPYTLAIHAGGGENPHCHLMISERINDGIERPAAQWFKRYNGKTPEKGGAQKTEALKPKAWLEQTREAWADHANRALERAGH
binding [2]: no binding

B3: N-terminal domain (270 residues) of RP4 TraI (domain or fragment, UniProt Q00191 1-270)
chain: MIAKHVPMRSIKKSDFAELVKYITDEQGKTERLGHVRVTNCEANTLPAVMAEVMATQHGNTRSEADKTYHLLVSFRAGEKPDAETLRAIEDRICAGLGFAEHQRVSAVHHDTDNLHIHIAINKIHPTRNTIHEPYRAYRALADLCATLERDYGLERDNHETRQRVSENRANDMERHAGVESLVGWIKRECLPELQAAQSWEDLHRVLRENGLKLRERGNGFIFEAGDGTTVKASTVSRDLSKPKLEARFGAFTPAEGGEAPRRREYRAKP
binding [3]: no binding
